Experimental data: PubChem BioAssay AID602196 (INSERM, 2012)
Screen: 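Genes whose knock-down alters cisplatin killing of lung cancer cells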. Cell system: human A549 lung cancer cells. Knock-down reagent: siRNA pair against human genes. Timing: 48 h transfection before cisplatin; time from cisplatin to read-out not stated. Treatment: cisplatin at a dose killing half of control-siRNA cells; exact dose and duration not given. Measurement: 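Shift in cisplatin death relative to control siRNA, from -50 (all cells die) to +50 (no cells die); siRNAs harmful on their own scored 0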. Scale: two-siRNA summed score (-2 to +2): higher = both siRNAs protect from cisplatin killing; -2 means both sensitise; mean protection from cisplatin (shift in death) and protection from cisplatin (shift in death), siRNA C and protection from cisplatin (shift in death), siRNA D: higher = protection from cisplatin killing. Hit rule: 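siRNAs harmful alone (LDH or WST-1) get 0; others get +1 for less and -1 for more cisplatin killing; genes are active when the two siRNAs give the same sign, summing to ±2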. Meaning of the calls: active = both siRNAs shift cisplatin killing the same way; inactive = no consistent shift, or siRNA harmful alone.
The deposit covers about 23,000 reagents; below is a random part of them. 455 of all reagents (2%) count as active. 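Active includes both protection and sensitisation; some change values fall well beyond the stated -50 to +50 range.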 A number with no mark means an inactive call. Not given: the amount of reagent.

two-siRNA summed score (-2 to +2)	mean protection from cisplatin (shift in death) (%)	protection from cisplatin (shift in death), siRNA C (%)	protection from cisplatin (shift in death), siRNA D (%)	gene
0	7.7	9.6	5.8	KCNB2 (GeneID 9312)
0	-4.6	-23.4	14.2	VPREB1 (GeneID 7441)
1	1.5	8.9	-5.8	SOX6 (GeneID 55553)
0	-11.8	-1.9	-21.8	GABARAP (GeneID 11337)
0	12.5	12.6	12.5	MED29 (GeneID 55588)
0	22.8	29.4	16.2	LOC402057
0	7.2	12.6	1.8	TGIF1 (GeneID 7050)
1	9.5	4.1	15	SPANXN1 (GeneID 494118)
0	8.8	2.2	15.4	MUC7 (GeneID 4589)
0	-2.6	0.2	-5.4	MAST1 (GeneID 22983)
1	14.4	3.5	25.3	SCYL1 (GeneID 57410)
0	7.2	-6.3	20.8	CXCR2 (GeneID 3579)
0	14.4	19.8	9	OR13A1 (GeneID 79290)
0	-6.8	-9.7	-3.9	WFDC12 (GeneID 128488)
0	10.8	17.7	3.9	LOC144776
0	3.5	-0.3	7.3	AFM (GeneID 173)
0	21.7	12.6	30.7	PEX16 (GeneID 9409)
0	4.1	5.7	2.5	FADD (GeneID 8772)
0	1.7	-2.8	6.2	IGSF21 (GeneID 84966)
0	4.5	2.6	6.5	GSK3A (GeneID 2931)
0	-0.1	-5.5	5.3	CMSS1 (GeneID 84319)
1	7.6	-5.1	20.3	SPANXN5 (GeneID 494197)
0	-9.9	4.9	-24.7	ZMYND8 (GeneID 23613)
0	0.2	-4.7	5.1	MAP1S (GeneID 55201)
1	14.9	19.6	10.2	LOC440885
0	10.3	14.2	6.4	PPIAP74 (GeneID 131055)
0	13.7	10.9	16.6	RPP30 (GeneID 10556)
0	9.3	11.4	7.2	OR5H15 (GeneID 403274)
0	2.1	2.5	1.8	SAV1 (GeneID 60485)
0	-2.3	-7	2.3	SNX4 (GeneID 8723)
2 (active)	17.1	20.7	13.4	TARP (GeneID 445347)
1	7.6	-6	21.1	ZSWIM5 (GeneID 57643)
0	-0.1	2.6	-2.8	LOC390615
1	4.3	9.7	-1.1	LRPPRC (GeneID 10128)
0	15.4	11.8	18.9	LOC440362
0	8.5	10	7	SLC35G1 (GeneID 159371)
0	8.1	9.8	6.3	FLJ39824
1	16.9	21.1	12.7	SOWAHA (GeneID 134548)
0	3.4	5.7	1.1	MGC12760
1	18	20.4	15.7	SRSF5 (GeneID 6430)
0	-4.2	-14.8	6.3	TAS2R50 (GeneID 259296)
0	-5.2	-4	-6.4	PDE11A (GeneID 50940)
0	-22.6	1.7	-46.8	MLYCD (GeneID 23417)
0	4.9	7.1	2.7	MIR646HG (GeneID 284757)
0	13.9	5.6	22.3	OR1K1 (GeneID 392392)
0	4.4	12.5	-3.7	TMEM87B (GeneID 84910)
0	1	14.8	-12.8	RAB39A (GeneID 54734)
1	21.4	9.8	33	C10orf55 (GeneID 414236)
-2 (active)	-14.3	-13.3	-15.3	CD38 (GeneID 952)
0	4.2	0.7	7.7	LOC440780
0	4.7	8.2	1.2	SGTB (GeneID 54557)
0	6	24.2	-12.2	HNRNPA1P60 (GeneID 120364)
0	2.2	-5	9.5	ST3GAL3 (GeneID 6487)
0	9.5	17.5	1.4	KIAA0592
0	-5.1	-8.4	-1.9	BNC2 (GeneID 54796)
0	3.3	6.7	-0.1	LOC283331
0	-8.7	-5.6	-11.7	HESX1 (GeneID 8820)

2 entries from above, arranged by “protection from cisplatin (shift in death), siRNA C (%)”, lowest first:
two-siRNA summed score (-2 to +2)	mean protection from cisplatin (shift in death) (%)	protection from cisplatin (shift in death), siRNA C (%)	protection from cisplatin (shift in death), siRNA D (%)	gene
1	9.5	4.1	15	SPANXN1 (GeneID 494118)
0	7.2	12.6	1.8	TGIF1 (GeneID 7050)
